This is an account of results in publication PMC11297322, “MEILB2-BRME1 forms a V-shaped DNA clamp upon BRCA2-binding in meiotic recombination” (Nature Communications, 2023).

Common to all, as to assay: EMSA
For orientation: In EMSA bound probe runs differently from free probe, usually more slowly.

For data set [1], the system named is BRCA2MBD + MEILB2 (22-338) + BRME1MBD R540E R549E. The conditions noted are these: EMSA: 20 mM HEPES pH 7.5, 325 mM KCl, 60 min room temperature; 0.4% agarose, 0.5x TBE pH 8.0, 4 C; 50 uM DNA per bp/base (qualitative); recombinant protein.
For data set [2], the system named is BRCA2MBD + MEILB2 (22-338) + BRME1MBD deltaRKTK. The following applies: small discrete species, then larger; EMSA: 20 mM HEPES pH 7.5, 325 mM KCl, 60 min room temperature; 0.4% agarose, 0.5x TBE pH 8.0, 4 C; 50 uM DNA per bp/base (qualitative); recombinant protein.
For data set [3], the system named is BRCA2MBD + MEILB2 (22-338) + BRME1MBD. The following applies: EMSA: 20 mM HEPES pH 7.5, 325 mM KCl, 60 min room temperature; 0.4% agarose, 0.5x TBE pH 8.0, 4 C; 50 uM DNA per bp/base (qualitative); recombinant protein.
For data set [4], the system named is BRCA2MBD + MEILB2 K26E + BRME1MBD. The conditions noted are these: single discrete species; EMSA: 20 mM HEPES pH 7.5, 325 mM KCl, 60 min room temperature; 0.4% agarose, 0.5x TBE pH 8.0, 4 C; 50 uM DNA per bp/base (qualitative); recombinant protein.
Data set [5] relates to MEILB2 (22-338) + BRME1MBD R540E R549E. The following applies: EMSA: 20 mM HEPES pH 7.5, 325 mM KCl, 60 min room temperature; 0.4% agarose, 0.5x TBE pH 8.0, 4 C; 50 uM DNA per bp/base (qualitative); recombinant protein; protein details: His6-MBP tag, TEV-cleaved,His6 tag, TEV-cleaved.
In data set [6] the test system is MEILB2 (22-338) + BRME1MBD. The following applies: saturation at one 2:2 complex per 10 bp; EMSA: 20 mM HEPES pH 7.5, 325 mM KCl, 60 min room temperature; 0.4% agarose, 0.5x TBE pH 8.0, 4 C; 50 uM DNA per bp/base (qualitative); recombinant protein; protein details: His6-MBP tag, TEV-cleaved,His6 tag, TEV-cleaved.
In another data set the test system is MEILB2 K26E + BRME1MBD. The following applies: slight hint of binding at highest concentration; EMSA: 20 mM HEPES pH 7.5, 325 mM KCl, 60 min room temperature; 0.4% agarose, 0.5x TBE pH 8.0, 4 C; 50 uM DNA per bp/base (qualitative); recombinant protein; protein details: His6-MBP tag, TEV-cleaved,His6 tag, TEV-cleaved.

For some of these results: No signal at the amounts used counts as a negative. For some of these results: Weaker means in comparison with the reference protein, sequence or condition of that experiment.

Consider “ATGGAATCTAAAGAAGAATTTGTTAAAGTCAGAAAGAAGGACCTGGAACGGCTGACGACGGAAGTGATGCAAATACGGGACTTCTTACCCAGAATACTAAATGGGGAGTTACTGGAAAGTTTCCAGAAATTAAAGATGGTAGAAAAAAACCTGGAAAGAAAAGAACAAGAATTAGAGCAACTGATAATGGACCGTGAACACTTCAAAGCCCGGCTAGAAACTGCACAGGCAGACAGTGGGAGGGAGAAGAAGGAGAAGTTGGCTCTTCGACAGCAGCTGAATGAGGCAAAACAGCAGCTC (double strand) [300 bp dsDNA]”, for which the binding result in data set [1] is reported as “no binding”; in data set [2], “binds”; in data set [3], “binds”; in data set [4], “binds”; in data set [5], “no binding”; in data set [6], “binds”. Moreover, the binding result with MEILB2 K26E + BRME1MBD was “binds more weakly”.
